Source: PMC12386920
Where two headings read alike, the source gives them in different places. Results are given in words; binding and its absence hold for the method and conditions named. Binding seen in cells or lysates may run through a third protein. Here binding means that the protein was enriched with, or labelled near, the bait; the list need not be complete. Sequences can lack the tags named with a protein.

Sequences of proteins named here, by UniProt entry; tags and fusion partners are left off.
UniProt O46036: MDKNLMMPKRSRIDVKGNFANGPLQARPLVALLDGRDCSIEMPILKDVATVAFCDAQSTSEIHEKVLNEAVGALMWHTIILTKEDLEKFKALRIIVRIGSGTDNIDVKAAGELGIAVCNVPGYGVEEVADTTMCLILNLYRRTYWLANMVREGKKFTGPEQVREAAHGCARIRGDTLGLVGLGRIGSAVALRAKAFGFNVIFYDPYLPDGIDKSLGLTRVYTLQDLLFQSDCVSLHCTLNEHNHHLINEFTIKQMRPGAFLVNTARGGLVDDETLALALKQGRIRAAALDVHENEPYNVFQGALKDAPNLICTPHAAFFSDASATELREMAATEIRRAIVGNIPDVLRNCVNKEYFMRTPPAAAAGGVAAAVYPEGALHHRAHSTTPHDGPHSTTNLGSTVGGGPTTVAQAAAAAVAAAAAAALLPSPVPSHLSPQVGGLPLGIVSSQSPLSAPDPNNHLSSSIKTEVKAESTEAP

T1: ecdysone receptor isoform EcR-A fused to TurboID biotin ligase (TurboID-Gly-EcR) (Drosophila melanogaster) (UniProt P34021)
T1 sequence: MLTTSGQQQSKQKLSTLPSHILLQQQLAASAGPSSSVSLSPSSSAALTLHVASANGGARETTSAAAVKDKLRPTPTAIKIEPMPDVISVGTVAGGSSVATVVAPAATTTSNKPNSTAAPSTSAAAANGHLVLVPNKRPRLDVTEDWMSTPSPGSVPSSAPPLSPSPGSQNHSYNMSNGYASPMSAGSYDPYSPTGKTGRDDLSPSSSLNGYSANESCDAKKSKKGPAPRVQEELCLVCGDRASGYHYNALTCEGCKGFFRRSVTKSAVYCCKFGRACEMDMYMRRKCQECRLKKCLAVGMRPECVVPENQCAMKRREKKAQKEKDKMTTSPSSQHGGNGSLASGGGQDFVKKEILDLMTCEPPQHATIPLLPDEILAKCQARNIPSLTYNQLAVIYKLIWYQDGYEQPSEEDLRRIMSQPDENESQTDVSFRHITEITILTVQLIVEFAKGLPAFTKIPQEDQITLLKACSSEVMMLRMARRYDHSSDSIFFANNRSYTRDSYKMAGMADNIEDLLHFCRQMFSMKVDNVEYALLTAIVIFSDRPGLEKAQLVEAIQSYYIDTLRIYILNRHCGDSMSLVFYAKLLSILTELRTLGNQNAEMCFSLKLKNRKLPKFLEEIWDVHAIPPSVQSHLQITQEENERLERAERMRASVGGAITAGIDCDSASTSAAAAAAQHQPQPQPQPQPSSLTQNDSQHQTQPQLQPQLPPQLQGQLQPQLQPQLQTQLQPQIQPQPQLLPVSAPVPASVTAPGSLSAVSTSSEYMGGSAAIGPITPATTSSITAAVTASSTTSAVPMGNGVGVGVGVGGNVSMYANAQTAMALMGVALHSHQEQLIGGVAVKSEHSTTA


Tests used:
[1] = molecular target: T1, ecdysone receptor isoform EcR-A fused to TurboID biotin ligase (TurboID-Gly-EcR) (Drosophila melanogaster); experiment: proximity labelling; TurboID-EcR-A expressed in ovarian somatic cells of transgenic flies (tj-GAL4), biotin-supplemented food for 24 h; ovaries lysed in RIPA buffer; biotinylated proteins enriched on protease-resistant streptavidin (prS), on-bead trypsinolysis, LC-MS/MS; enrichment against the TurboGly (TurboID-Gly) control, two biological replicates
[2] = molecular target: T1, ecdysone receptor isoform EcR-A fused to TurboID biotin ligase (TurboID-Gly-EcR) (Drosophila melanogaster); experiment: as above; remark: listed apart in the source

Row | binding [1] | binding [2] | Molecule
1 | binds | – | CtBP (from UniProt O46036 1-476)
2 | – | binds | Dp (the dimerization partner of E2F1) (protein, UniProt Q24318 1-445, biotinylated by TurboID (sites not determined)) MAHSTGGTVKTDEVNFFFRNEHGQISKMLKPAQNKSEMEGGKPVAVVYATGSSARNSGSASGIGNVGRMGAFSQMGSQGQFIRLQDNGLSIPKTEAGTTYTTVSAQKTSGAGSGHYDLPLKGDRYVKFTPNPIKMKSKLHAIQSNSLHSMSASSSSVQRKRKPDKAGKGLRHFSMKVCEKVEEKGKTTYNEVADDLVSEEMKNNAYDNNCDQKNIRRRVYDALNVLMAINVISKDKKEIRWIGLPANSTETFLALEEENCQRRERIKQKNEMLREMIMQHVAFKGLVERNKRNESQGVVPSPNASIQLPFIIVNTHKSTKINCSVTNDKSEYIFKFDKTFEMHDDIEVLKRMGFLLGLDKGECTPENIERVKSWVPPNLAKYVEAYGTGKTGENMYESDDEDNEFNGYLESANESQGFAQHSAQHTTDGEFKLEMDDDELDDDID
3 | – | binds | tws, a subunit of the INTAC complex (protein, UniProt P36872 1-499, biotinylated by TurboID (sites not determined)) MGRWGRQSPVLEPPDPQMQTTPPPPTLPPRTFMRQSSITKIGNMLNTAININGAKKPASNGEASWCFSQIKGALDDDVTDADIISCVEFNHDGELLATGDKGGRVVIFQRDPASKAANPRRGEYNVYSTFQSHEPEFDYLKSLEIEEKINKIRWLQQKNPVHFLLSTNDKTVKLWKVSERDKSFGGYNTKEENGLIRDPQNVTALRVPSVKQIPLLVEASPRRTFANAHTYHINSISVNSDQETFLSADDLRINLWHLEVVNQSYNIVDIKPTNMEELTEVITAAEFHPTECNVFVYSSSKGTIRLCDMRSAALCDRHSKQFEEPENPTNRSFFSEIISSISDVKLSNSGRYMISRDYLSIKVWDLHMETKPIETYPVHEYLRAKLCSLYENDCIFDKFECCWNGKDSSIMTGSYNNFFRVFDRNSKKDVTLEASRDIIKPKTVLKPRKVCTGGKRKKDEISVDCLDFNKKILHTAWHPEENIIAVAATNNLFIFQDKF
